Reference: the supplement of paper PMC4604168 (melanoma cell lines)
The other results are listed elsewhere or left out. Many values rest on one well or one pass, so single values are uncertain.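 The apoptosis fraction was the count of cleaved-PARP antibody-stained nuclei relative to all DNA-stained nuclei, imaged in 1,536-well plates. Screening doses were set so most cells survived, and baseline and induced cleaved-PARP levels vary greatly across cell lines.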

The compounds below were run on UACC62 (assay: cleaved PARP positive nuclei fraction relative to DMSO control; melanoma cells; higher = more apoptosis). Conditions: library dose: low library concentration; 72 h.

SMILES | cleaved PARP positive nuclei fraction
C[C@]1(O)C[C@@H](c2nc(-c3ccc4ccc(-c5ccccc5)nc4c3)c3c(N)nccn32)C1 + C=CCn1c(=O)c2cnc(Nc3ccc(N4CCN(C)CC4)cc3)nc2n1-c1cccc(C(C)(C)O)n1 [MK1775] (first compound 0.4 µM, partner dose 0.02 µM) | 180%
CS(=O)(=O)c1ccc(C(=O)Nc2ccc(Cl)c(-c3ccccn3)c2)c(Cl)c1 [vismodegib] + C[C@@H](Oc1cc(-c2cnn(C3CCNCC3)c2)cnc1N)c1c(Cl)ccc(F)c1Cl [Crizotinib] (first compound 1 µM, partner dose 0.2 µM) | 62.1%
CN(c1ncccc1CNc1nc(Nc2ccc3c(c2)CC(=O)N3)ncc1C(F)(F)F)S(C)(=O)=O + Oc1cc(-c2nc(-c3ccccc3)[nH]c2-c2ccncc2)ccc1Cl [L779450] (first compound 0.08 µM, partner dose 0.2 µM) | 224%
NC(=O)c1ccc(N(C(N)=O)c2c(F)cccc2F)nc1-c1ccc(F)cc1F + COc1ccc(Cl)c(Nc2nc3ccccc3nc2NS(=O)(=O)c2cccc(NC(=O)C(C)(C)N)c2)c1 [XL147] (first compound 0.4 µM, partner dose 0.8 µM) | 158%
CN(c1ncccc1CNc1nc(Nc2ccc3c(c2)CC(=O)N3)ncc1C(F)(F)F)S(C)(=O)=O + Cc1cc(Nc2cc(N3CCN(C)CC3)nc(/C=C/c3ccccc3)n2)n[nH]1 [ENMD2076] (first compound 0.08 µM, partner dose 0.04 µM) | 63.8%
CCCCCCCCc1ccc(CCC(N)(CO)CO)cc1 [fingolimod] + c1cc(-c2cnn3cc(-c4ccc(OCCN5CCCCC5)cc4)cnc23)ccn1 [Dorsomorphin] (first compound 2 µM, partner dose 0.4 µM) | 163%
CS(=O)(=O)c1ccc(C(=O)Nc2ccc(Cl)c(-c3ccccn3)c2)c(Cl)c1 [vismodegib] + CC(=O)O[C@@]12CO[C@@H]1C[C@H](O)[C@@]1(C)C(=O)[C@H](O)C3=C(C)[C@@H](OC(=O)[C@H](O)[C@@H](NC(=O)OC(C)(C)C)c4ccccc4)C[C@@](O)([C@@H](OC(=O)c4ccccc4)[C@H]21)C3(C)C [Docetaxel] (first compound 1 µM, partner dose 0.0001 µM) | 404%
CC(=O)O[C@@]12CO[C@@H]1C[C@H](O)[C@@]1(C)C(=O)[C@H](O)C3=C(C)[C@@H](OC(=O)[C@H](O)[C@@H](NC(=O)OC(C)(C)C)c4ccccc4)C[C@@](O)([C@@H](OC(=O)c4ccccc4)[C@H]21)C3(C)C [Docetaxel] + COc1cc(Nc2ncc(F)c(Nc3ccc4c(n3)NC(=O)C(C)(C)O4)n2)cc(OC)c1OC [Tamatinib] (first compound 0.0001 µM, partner dose 0.4 µM) | 574%
CS(=O)(=O)c1ccc(C(=O)Nc2ccc(Cl)c(-c3ccccn3)c2)c(Cl)c1 [vismodegib] + CC1(C)NC(=O)N(c2ccc([N+](=O)[O-])c(C(F)(F)F)c2)C1=O [nilutamide] (first compound 1 µM, partner dose 1 µM) | 43.6%
CCN(CC)CCNC(=O)c1c(C)[nH]c(/C=C2\C(=O)Nc3ccc(F)cc32)c1C [sunitinib] + COCC[n+]1c2c(n(Cc3cnccn3)c1C)C(=O)c1ccccc1C2=O [YM155] (first compound 0.4 µM, partner dose 0.0004 µM) | 120%
NC1(c2ccc(-c3nc4ccn5c(=O)[nH]nc5c4cc3-c3ccccc3)cc2)CCC1 + Nc1ncn([C@H]2C[C@H](O)[C@@H](CO)O2)c(=O)n1 [decitabine] (first compound 0.4 µM, partner dose 0.1 µM) | 259%
